Results reported in the supplement of paper PMC4604168 (melanoma cell lines).
The other results are listed elsewhere or left out. Single values are uncertain, as repeats are few or missing.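 The apoptosis fraction was the count of cleaved-PARP antibody-stained nuclei relative to all DNA-stained nuclei, imaged in 1,536-well plates. Screening doses were set so most cells survived, and baseline and induced cleaved-PARP levels vary greatly across cell lines.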

Columns and labels:
Test in all cases: cleaved PARP positive nuclei fraction relative to DMSO control; melanoma cells; higher = more apoptosis
Conditions in all cases: library dose: low library concentration; 72 h
MZ2-MEL = system: MZ2-MEL
MeWo = system: MeWo
RPMI7951 = system: RPMI7951
RVH-421 = system: RVH-421
SkMel28 = system: SkMel28
SkMel2 = system: SkMel2
SkMel30 = system: SkMel30
SkMel5 = system: SkMel5
UACC257 = system: UACC257
UACC62 = system: UACC62

| SMILES | cleaved PARP positive nuclei fraction (MZ2-MEL) | cleaved PARP positive nuclei fraction (MeWo) | cleaved PARP positive nuclei fraction (RPMI7951) | cleaved PARP positive nuclei fraction (RVH-421) | cleaved PARP positive nuclei fraction (SkMel28) | cleaved PARP positive nuclei fraction (SkMel2) | cleaved PARP positive nuclei fraction (SkMel30) | cleaved PARP positive nuclei fraction (SkMel5) | cleaved PARP positive nuclei fraction (UACC257) | cleaved PARP positive nuclei fraction (UACC62) |
| --- | --- | --- | --- | --- | --- | --- | --- | --- | --- | --- |
| Cn1cnc2c(F)c(Nc3ccc(Br)cc3Cl)c(C(=O)NOCCO)cc21 [selumetinib] + CCCCCCCCCCCC1=C(O)C(=O)C=C(O)C1=O [Embelin] (first compound 0.015 µM, partner dose 1.2 µM) | 182% | 92.2% | 127% | 54.5% | 271% | 125% | 192% | 58.9% | 54.8% | 106% |
| CC1(C)CCC(c2ccc(Cl)cc2)=C(CN2CCN(c3ccc(C(=O)NS(=O)(=O)c4ccc(N[C@H](CCN5CCOCC5)CSc5ccccc5)c(S(=O)(=O)C(F)(F)F)c4)cc3)CC2)C1 + CO[C@@H]1[C@H](N(C)C(=O)c2ccccc2)C[C@H]2O[C@]1(C)n1c3ccccc3c3c4c(c5c6ccccc6n2c5c31)C(=O)NC4 [Midostaurin] (first compound 0.4 µM, partner dose 0.08 µM) | 186% | 593% | 141% | 74.5% | 242% | 278% | 142% | 485% | 173% | 91% |
| CC1(C)CCC(c2ccc(Cl)cc2)=C(CN2CCN(c3ccc(C(=O)NS(=O)(=O)c4ccc(N[C@H](CCN5CCOCC5)CSc5ccccc5)c(S(=O)(=O)C(F)(F)F)c4)cc3)CC2)C1 + OCCn1cc(-c2cnc3nnn(Cc4ccc5ncccc5c4)c3n2)cn1 [PF04217903] (first compound 0.4 µM, partner dose 1 µM) | 293% | 138% | 147% | 184% | 64.3% | 137% | 93.1% | 45.8% | 62.9% | 75.1% |
| CCN(CC)CCNC(=O)c1c(C)[nH]c(/C=C2\C(=O)Nc3ccc(F)cc32)c1C [sunitinib] + NC(=O)Nc1cc(-c2cccc(F)c2)sc1C(=O)N[C@H]1CCCNC1 [AZD7762] (first compound 0.4 µM, partner dose 0.02 µM) | 83.1% | 251% | 107% | 73.7% | 64.3% | 122% | 150% | 110% | 93.8% | 124% |
| COc1ccc(C2=N[C@@H](c3ccc(Cl)cc3)[C@@H](c3ccc(Cl)cc3)N2C(=O)N2CCNC(=O)C2)c(OC(C)C)c1 [Nutlin-3] + Cn1cc(/C=C2\C(=O)Nc3cccnc32)c2ccccc21 [GW441756] (first compound 0.1 µM, partner dose 0.4 µM) | 108% | 109% | 314% | 61.8% | 238% | 18.1% | 40% | 91.8% | 288% | 83.3% |
| CC1(C)CCC(c2ccc(Cl)cc2)=C(CN2CCN(c3ccc(C(=O)NS(=O)(=O)c4ccc(N[C@H](CCN5CCOCC5)CSc5ccccc5)c(S(=O)(=O)C(F)(F)F)c4)cc3)CC2)C1 + O=C(CCCCCCC(=O)Nc1ccccc1)NO [vorinostat] (first compound 0.4 µM, partner dose 0.08 µM) | 332% | 358% | 127% | 91.8% | 144% | 178% | 84.6% | 250% | 125% | 109% |
| NC1(c2ccc(-c3nc4ccn5c(=O)[nH]nc5c4cc3-c3ccccc3)cc2)CCC1 + COC(=O)c1sccc1S(=O)(=O)Nc1ccc(Nc2ccccc2)cc1OC [GSK0660] (first compound 0.4 µM, partner dose 1 µM) | 171% | 81.1% | 41.7% | 116% | 64.6% | 323% | 66.2% | 83.8% | 157% | 121% |
| C[C@@H](N)c1ccc(C(=O)Nc2ccnc3[nH]ccc23)cc1 + C[C@@H]1CCN(C(=O)CC#N)C[C@@H]1N(C)c1ncnc2[nH]ccc12 [CP690550] (first compound 0.4 µM, partner dose 1 µM) | 38% | 35.1% | 175% | 223% | 138% | 45.2% | 54.3% | 413% | 103% | 25.8% |
| CN(c1ncccc1CNc1nc(Nc2ccc3c(c2)CC(=O)N3)ncc1C(F)(F)F)S(C)(=O)=O + COc1ccc(-c2ccc3c(N4CCOCC4)nc(N4C[C@@H](C)O[C@@H](C)C4)nc3n2)cc1CO [KU0063794] (first compound 0.08 µM, partner dose 0.02 µM) | 223% | 66.2% | 362% | 112% | 107% | 105% | 93.1% | 99.7% | 124% | 108% |
| CN(c1ncccc1CNc1nc(Nc2ccc3c(c2)CC(=O)N3)ncc1C(F)(F)F)S(C)(=O)=O + O=c1cc(-c2cccc3c2Sc2ccccc2S3)oc(N2CCOCC2)c1 [KU55933] (first compound 0.08 µM, partner dose 1 µM) | 130% | 63.2% | 53.9% | 88.3% | 199% | 60.9% | 462% | 45.7% | 350% | 151% |
| CCCCCCCCc1ccc(CCC(N)(CO)CO)cc1 [fingolimod] + O=S(=O)(c1ccccc1)N(CC(F)(F)F)c1ccc(C(O)(C(F)(F)F)C(F)(F)F)cc1 [T0901317] (first compound 2 µM, partner dose 1.4 µM) | 51.5% | 43.3% | 226% | 66.9% | 197% | 73.1% | 68.6% | 106% | 79.6% | 174% |
| CN(c1ncccc1CNc1nc(Nc2ccc3c(c2)CC(=O)N3)ncc1C(F)(F)F)S(C)(=O)=O + O=C(CCCCCCC(=O)Nc1ccccc1)NO [vorinostat] (first compound 0.08 µM, partner dose 0.08 µM) | 126% | 112% | 85% | 134% | 49.7% | 134% | 167% | 46.9% | 253% | 45% |
| CC(=O)O[C@@]12CO[C@@H]1C[C@H](O)[C@@]1(C)C(=O)[C@H](O)C3=C(C)[C@@H](OC(=O)[C@H](O)[C@@H](NC(=O)OC(C)(C)C)c4ccccc4)C[C@@](O)([C@@H](OC(=O)c4ccccc4)[C@H]21)C3(C)C [Docetaxel] + O=C(CCCCCCC(=O)Nc1ccccc1)NO [vorinostat] (first compound 0.0001 µM, partner dose 0.08 µM) | 897% | 871% | 179% | 105% | 303% | 917% | 220% | 73.3% | 841% | 234% |
| CC(=O)O[C@@]12CO[C@@H]1C[C@H](O)[C@@]1(C)C(=O)[C@H](O)C3=C(C)[C@@H](OC(=O)[C@H](O)[C@@H](NC(=O)OC(C)(C)C)c4ccccc4)C[C@@](O)([C@@H](OC(=O)c4ccccc4)[C@H]21)C3(C)C [Docetaxel] + O=C1NC(=O)/C(=C/c2ccc(-c3ccc(F)cc3O)o2)S1 [AS252424] (first compound 0.0001 µM, partner dose 1 µM) | 758% | 494% | 209% | 188% | 180% | 695% | 407% | 180% | 194% | 1310% |
| CN(c1ncccc1CNc1nc(Nc2ccc3c(c2)CC(=O)N3)ncc1C(F)(F)F)S(C)(=O)=O + CN(C)S(=O)(=O)c1ccc2c(c1)/C(=C/c1cc3c([nH]1)CCCC3)C(=O)N2 [SU6656] (first compound 0.08 µM, partner dose 0.4 µM) | 131% | 73.2% | 145% | 139% | 255% | 65.4% | 73.2% | 97.1% | 69.6% | 121% |
| Cn1sc(=O)n(Cc2ccccc2)c1=O + Cn1cncc1[C@@](N)(c1ccc(Cl)cc1)c1ccc2c(c1)c(-c1cccc(Cl)c1)cc(=O)n2C [tipifarnib] (first compound 0.4 µM, partner dose 0.01 µM) | 76.6% | 94.1% | 109% | 148% | 63% | 191% | 68.3% | 33.9% | 136% | 60.6% |
| C[C@]1(O)C[C@@H](c2nc(-c3ccc4ccc(-c5ccccc5)nc4c3)c3c(N)nccn32)C1 + Cc1ccc(NC(=O)c2cccc(N(C)C)c2)cc1NC(=O)c1ccc(O)cc1 [ZM336372] (first compound 0.4 µM, partner dose 2 µM) | 75.2% | 96.5% | 69.6% | 60.8% | 44.7% | 97.4% | 140% | 83.1% | 179% | 179% |
| COc1ccc(C2=N[C@@H](c3ccc(Cl)cc3)[C@@H](c3ccc(Cl)cc3)N2C(=O)N2CCNC(=O)C2)c(OC(C)C)c1 [Nutlin-3] + CC(C)(C)c1cnc(CSc2cnc(NC(=O)C3CCNCC3)s2)o1 [SNS-032] (first compound 0.1 µM, partner dose 0.01 µM) | 315% | 955% | 50.1% | 171% | 96.9% | 159% | 62.9% | 138% | 54.1% | 125% |
| CCN(CC)CCNC(=O)c1c(C)[nH]c(/C=C2\C(=O)Nc3ccc(F)cc32)c1C [sunitinib] + CO[C@@H]1[C@H](N(C)C(=O)c2ccccc2)C[C@H]2O[C@]1(C)n1c3ccccc3c3c4c(c5c6ccccc6n2c5c31)C(=O)NC4 [Midostaurin] (first compound 0.4 µM, partner dose 0.08 µM) | 47% | 182% | 40.5% | 86.2% | 171% | 82.1% | 79.3% | 130% | 147% | 90.6% |
| NC(=O)c1ccc(N(C(N)=O)c2c(F)cccc2F)nc1-c1ccc(F)cc1F + O=c1cc(-c2cccc3c2Sc2ccccc2S3)oc(N2CCOCC2)c1 [KU55933] (first compound 0.4 µM, partner dose 1 µM) | 152% | 113% | 109% | 98.9% | 181% | 72.1% | 55.7% | 33.4% | 147% | 99.9% |
| C[C@]1(O)C[C@@H](c2nc(-c3ccc4ccc(-c5ccccc5)nc4c3)c3c(N)nccn32)C1 + CCc1ccc(CCOc2ccc(CC3SC(=O)NC3=O)cc2)nc1 [pioglitazone] (first compound 0.4 µM, partner dose 2 µM) | 84.3% | 46.2% | 120% | 63.1% | 108% | 133% | 87.9% | 79.5% | 215% | 169% |

Retrieved one by one from above (2):

| SMILES | cleaved PARP positive nuclei fraction (MZ2-MEL) | cleaved PARP positive nuclei fraction (MeWo) | cleaved PARP positive nuclei fraction (RPMI7951) | cleaved PARP positive nuclei fraction (RVH-421) | cleaved PARP positive nuclei fraction (SkMel28) | cleaved PARP positive nuclei fraction (SkMel2) | cleaved PARP positive nuclei fraction (SkMel30) | cleaved PARP positive nuclei fraction (SkMel5) | cleaved PARP positive nuclei fraction (UACC257) | cleaved PARP positive nuclei fraction (UACC62) |
| --- | --- | --- | --- | --- | --- | --- | --- | --- | --- | --- |
| CC1(C)CCC(c2ccc(Cl)cc2)=C(CN2CCN(c3ccc(C(=O)NS(=O)(=O)c4ccc(N[C@H](CCN5CCOCC5)CSc5ccccc5)c(S(=O)(=O)C(F)(F)F)c4)cc3)CC2)C1 + CO[C@@H]1[C@H](N(C)C(=O)c2ccccc2)C[C@H]2O[C@]1(C)n1c3ccccc3c3c4c(c5c6ccccc6n2c5c31)C(=O)NC4 [Midostaurin] (first compound 0.4 µM, partner dose 0.08 µM) | 186% | 593% | 141% | 74.5% | 242% | 278% | 142% | 485% | 173% | 91% |
| CCN(CC)CCNC(=O)c1c(C)[nH]c(/C=C2\C(=O)Nc3ccc(F)cc32)c1C [sunitinib] + CO[C@@H]1[C@H](N(C)C(=O)c2ccccc2)C[C@H]2O[C@]1(C)n1c3ccccc3c3c4c(c5c6ccccc6n2c5c31)C(=O)NC4 [Midostaurin] (first compound 0.4 µM, partner dose 0.08 µM) | 47% | 182% | 40.5% | 86.2% | 171% | 82.1% | 79.3% | 130% | 147% | 90.6% |
